These are yes or no findings as the source states them, for the method shown. Some entries that bind do so weakly or less than the wild type.
Legend:
[1] = target: T1, soluble recombinant human αvβ6 (human) (UniProt P06756+P18564); test: blocking ELISA: biotin-αvβ6 pre-mixed with mAb, binding to plate-bound LAP; blocked ligand LAP
[2] = target: T1, soluble recombinant human αvβ6 (human); test: legend of FIG. 7A
[3] = target: T1, soluble recombinant human αvβ6 (human); test: ELISA, coated hsαvβ6, cation dependence
[4] = target: T2, αvβ6 on β6-transfected FDC-P1 cells (murine) (UniProt P43406+Q9Z0T9); test: adhesion of labelled β6-transfected FDC-P1 cells to plate-bound LAP, % binding; blocked ligand LAP
[5] = target: T2, αvβ6 on β6-transfected FDC-P1 cells (murine); test: cell capture assay: labelled β6-transfected FDC-P1 cells caught on plate-bound mAb, % binding; untransfected FDC-P1 cells as control
[6] = target: T1, soluble recombinant human αvβ6 (human); test: ELISA: purified mAb on plate-bound hsαvβ6, 1 mM Ca2+ and 1 mM Mg2+, A450
[7] = target: T1, soluble recombinant human αvβ6 (human); test: ELISA, coated hsαvβ6, 10 mM EDTA

Amino acid sequences for entries named in this document (tags omitted). A change or cut given only in a name is not applied to a line headed by its entry.
UniProt P06756: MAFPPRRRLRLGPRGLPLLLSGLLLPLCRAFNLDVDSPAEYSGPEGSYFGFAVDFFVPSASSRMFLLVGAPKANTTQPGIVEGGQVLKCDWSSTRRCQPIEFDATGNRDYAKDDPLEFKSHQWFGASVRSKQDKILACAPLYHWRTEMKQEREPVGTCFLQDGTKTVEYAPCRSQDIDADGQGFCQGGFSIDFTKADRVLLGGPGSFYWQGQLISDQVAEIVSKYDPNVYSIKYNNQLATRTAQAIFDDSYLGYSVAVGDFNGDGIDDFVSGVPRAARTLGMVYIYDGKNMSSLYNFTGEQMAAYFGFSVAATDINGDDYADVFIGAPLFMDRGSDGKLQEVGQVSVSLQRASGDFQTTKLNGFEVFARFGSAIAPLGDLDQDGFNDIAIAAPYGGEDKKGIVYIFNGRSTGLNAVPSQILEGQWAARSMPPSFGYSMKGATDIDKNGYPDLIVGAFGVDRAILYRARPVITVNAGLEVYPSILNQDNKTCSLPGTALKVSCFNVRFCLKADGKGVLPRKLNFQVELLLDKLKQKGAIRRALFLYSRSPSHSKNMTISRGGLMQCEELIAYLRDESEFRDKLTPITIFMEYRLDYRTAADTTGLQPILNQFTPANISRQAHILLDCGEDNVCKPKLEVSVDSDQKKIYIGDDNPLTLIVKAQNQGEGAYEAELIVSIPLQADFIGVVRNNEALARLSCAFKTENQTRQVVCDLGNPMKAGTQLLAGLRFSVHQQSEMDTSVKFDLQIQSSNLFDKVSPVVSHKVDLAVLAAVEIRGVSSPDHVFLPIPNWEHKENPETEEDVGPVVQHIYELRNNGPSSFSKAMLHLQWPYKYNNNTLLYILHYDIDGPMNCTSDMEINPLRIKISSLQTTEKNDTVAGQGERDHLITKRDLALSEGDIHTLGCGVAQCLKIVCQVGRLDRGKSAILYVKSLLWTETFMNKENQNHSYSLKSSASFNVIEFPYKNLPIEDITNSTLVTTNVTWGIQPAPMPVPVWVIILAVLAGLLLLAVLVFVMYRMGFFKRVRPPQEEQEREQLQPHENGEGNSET
UniProt P18564: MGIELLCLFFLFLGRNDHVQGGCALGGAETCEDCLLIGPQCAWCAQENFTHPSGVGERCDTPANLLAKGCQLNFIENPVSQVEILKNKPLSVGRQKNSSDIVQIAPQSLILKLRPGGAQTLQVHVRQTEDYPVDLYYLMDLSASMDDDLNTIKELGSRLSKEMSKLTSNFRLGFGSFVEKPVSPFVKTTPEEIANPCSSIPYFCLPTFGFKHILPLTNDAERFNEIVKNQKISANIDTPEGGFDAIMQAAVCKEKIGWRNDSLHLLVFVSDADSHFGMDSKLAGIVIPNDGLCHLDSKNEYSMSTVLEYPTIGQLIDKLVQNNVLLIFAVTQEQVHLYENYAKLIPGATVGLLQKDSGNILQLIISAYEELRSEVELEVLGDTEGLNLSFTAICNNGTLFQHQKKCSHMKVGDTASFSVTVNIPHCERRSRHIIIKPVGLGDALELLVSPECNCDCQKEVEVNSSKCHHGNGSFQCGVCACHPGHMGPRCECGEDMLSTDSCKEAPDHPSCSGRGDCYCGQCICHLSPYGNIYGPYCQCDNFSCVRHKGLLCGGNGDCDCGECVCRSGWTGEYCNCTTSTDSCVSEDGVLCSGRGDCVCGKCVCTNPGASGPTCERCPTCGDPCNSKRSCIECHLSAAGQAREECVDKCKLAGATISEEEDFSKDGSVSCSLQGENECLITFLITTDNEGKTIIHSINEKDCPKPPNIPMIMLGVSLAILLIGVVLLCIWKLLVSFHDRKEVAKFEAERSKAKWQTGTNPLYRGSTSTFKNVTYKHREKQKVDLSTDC
UniProt P43406: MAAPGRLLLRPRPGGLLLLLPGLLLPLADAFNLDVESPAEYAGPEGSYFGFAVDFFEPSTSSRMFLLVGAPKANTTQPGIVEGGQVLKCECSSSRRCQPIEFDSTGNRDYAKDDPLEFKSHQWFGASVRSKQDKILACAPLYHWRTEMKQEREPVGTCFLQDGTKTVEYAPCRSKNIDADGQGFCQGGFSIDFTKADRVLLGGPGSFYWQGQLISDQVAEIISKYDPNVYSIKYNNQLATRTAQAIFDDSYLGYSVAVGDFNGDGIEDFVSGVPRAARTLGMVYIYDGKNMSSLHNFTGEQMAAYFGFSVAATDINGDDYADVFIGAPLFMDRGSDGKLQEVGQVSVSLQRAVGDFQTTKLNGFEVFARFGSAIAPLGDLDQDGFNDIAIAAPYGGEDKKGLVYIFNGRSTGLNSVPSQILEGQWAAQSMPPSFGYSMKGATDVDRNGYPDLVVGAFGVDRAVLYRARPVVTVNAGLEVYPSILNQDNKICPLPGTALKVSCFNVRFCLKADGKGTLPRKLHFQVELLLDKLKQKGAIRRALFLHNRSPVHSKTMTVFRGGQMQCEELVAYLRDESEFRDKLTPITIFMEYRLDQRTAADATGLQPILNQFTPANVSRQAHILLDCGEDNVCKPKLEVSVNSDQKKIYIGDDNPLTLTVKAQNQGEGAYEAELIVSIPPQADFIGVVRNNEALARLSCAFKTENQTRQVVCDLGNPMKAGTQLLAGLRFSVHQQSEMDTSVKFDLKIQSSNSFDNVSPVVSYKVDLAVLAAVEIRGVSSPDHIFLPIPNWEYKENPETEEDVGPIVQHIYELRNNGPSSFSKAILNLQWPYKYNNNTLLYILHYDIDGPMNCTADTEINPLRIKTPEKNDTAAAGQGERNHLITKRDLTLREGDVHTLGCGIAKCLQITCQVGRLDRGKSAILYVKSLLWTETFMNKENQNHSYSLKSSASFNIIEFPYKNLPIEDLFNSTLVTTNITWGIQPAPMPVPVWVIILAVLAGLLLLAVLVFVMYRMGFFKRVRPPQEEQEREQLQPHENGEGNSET
UniProt Q9Z0T9: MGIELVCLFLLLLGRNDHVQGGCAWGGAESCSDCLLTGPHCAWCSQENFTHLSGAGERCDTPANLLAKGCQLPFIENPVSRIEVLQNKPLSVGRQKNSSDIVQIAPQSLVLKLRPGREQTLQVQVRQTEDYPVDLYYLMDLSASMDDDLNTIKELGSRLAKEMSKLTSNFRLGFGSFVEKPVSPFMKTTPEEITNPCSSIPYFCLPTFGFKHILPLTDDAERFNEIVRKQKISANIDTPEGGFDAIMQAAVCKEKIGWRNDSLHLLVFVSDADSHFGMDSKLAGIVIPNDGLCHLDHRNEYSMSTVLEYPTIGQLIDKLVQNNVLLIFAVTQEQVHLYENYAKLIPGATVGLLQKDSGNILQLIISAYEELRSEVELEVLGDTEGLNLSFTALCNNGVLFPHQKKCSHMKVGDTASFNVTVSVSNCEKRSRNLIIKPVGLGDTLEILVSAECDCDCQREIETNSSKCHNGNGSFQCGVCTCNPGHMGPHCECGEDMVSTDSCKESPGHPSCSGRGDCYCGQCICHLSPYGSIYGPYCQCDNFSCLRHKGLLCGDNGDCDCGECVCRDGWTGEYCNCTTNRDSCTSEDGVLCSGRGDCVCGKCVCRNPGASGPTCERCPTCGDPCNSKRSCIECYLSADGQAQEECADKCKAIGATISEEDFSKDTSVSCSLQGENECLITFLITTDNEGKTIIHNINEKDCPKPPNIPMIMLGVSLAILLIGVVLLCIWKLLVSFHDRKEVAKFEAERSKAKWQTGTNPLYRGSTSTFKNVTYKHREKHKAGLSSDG

| binding [1] | binding [2] | binding [3] | binding [4] | binding [5] | binding [6] | binding [7] | Binder |
| --- | --- | --- | --- | --- | --- | --- | --- |
| binds | binds | binds | binds | binds | binds | – | 7.7G5 (antibody, V domains shown) VH: EVQLQQSGPELVKPGASVKISCKASGYSFTGYFMNWVMQSHGKSLEWIGRIKPYNGDNFYNQKFMGKATLTVDKSSSTVHMELRSLASEDSAVYYCARDRYGTYGMDYWGQGTSVTVSS VL: QIVLTQSPAIMSASPGEKVTMTCSASSSVSYMHWYQQKSGTSPKRWIYDTSKLASGVPTRFSGSGSGTSYSLTINSMEAEDAATYYCQQWSSHPPTFGAGTKLELK |
| binds | binds | – | binds | binds | binds | binds | 7.1G10 (antibody, V domains shown) VH: QVQLQQSGPELVKPGASVRISCKASGYTFTSYYIHWVKQRPGQGLEWIGWLYPGKINTRYNEKFKGKATLIADKSSSTAYMQLSSLTSEDSAVYFCARHVLNGNFDYWGQGTTLTVSS VL: DIQMTQSPSSLSASLGERVSLTCRASQEISGYLSWLQQKPDGSIKRLIYAASTLDSGVPKRFSGSRSGADYSLTISSLESEDFADYYCLQYATYPYTFGGGTKLEIK |

Reference: patent US20090186036A1
